Results are given in words; binding and its absence hold for the method and conditions named. In cells and extracts the contact can be indirect. Some entries that bind do so weakly or less than the wild type. Tags and fused reporters may be left off the sequences shown.
Target: T1, GFP-tagged FATE1 (Fetal and Adult Testis Expressed 1), full-length wild type (human) (UniProt Q969F0)
T1 sequence: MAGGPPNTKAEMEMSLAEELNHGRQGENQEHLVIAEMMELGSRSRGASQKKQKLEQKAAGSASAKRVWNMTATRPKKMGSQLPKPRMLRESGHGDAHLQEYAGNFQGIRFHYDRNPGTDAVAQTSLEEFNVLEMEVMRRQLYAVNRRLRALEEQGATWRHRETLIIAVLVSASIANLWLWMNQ
Assay: co-IP

Protein sequences, listed by entry. Tags and fused reporters are not part of them. Lines headed by an entry give the natural chain unless they say otherwise; changes in a name come on top.
UniProt O00429: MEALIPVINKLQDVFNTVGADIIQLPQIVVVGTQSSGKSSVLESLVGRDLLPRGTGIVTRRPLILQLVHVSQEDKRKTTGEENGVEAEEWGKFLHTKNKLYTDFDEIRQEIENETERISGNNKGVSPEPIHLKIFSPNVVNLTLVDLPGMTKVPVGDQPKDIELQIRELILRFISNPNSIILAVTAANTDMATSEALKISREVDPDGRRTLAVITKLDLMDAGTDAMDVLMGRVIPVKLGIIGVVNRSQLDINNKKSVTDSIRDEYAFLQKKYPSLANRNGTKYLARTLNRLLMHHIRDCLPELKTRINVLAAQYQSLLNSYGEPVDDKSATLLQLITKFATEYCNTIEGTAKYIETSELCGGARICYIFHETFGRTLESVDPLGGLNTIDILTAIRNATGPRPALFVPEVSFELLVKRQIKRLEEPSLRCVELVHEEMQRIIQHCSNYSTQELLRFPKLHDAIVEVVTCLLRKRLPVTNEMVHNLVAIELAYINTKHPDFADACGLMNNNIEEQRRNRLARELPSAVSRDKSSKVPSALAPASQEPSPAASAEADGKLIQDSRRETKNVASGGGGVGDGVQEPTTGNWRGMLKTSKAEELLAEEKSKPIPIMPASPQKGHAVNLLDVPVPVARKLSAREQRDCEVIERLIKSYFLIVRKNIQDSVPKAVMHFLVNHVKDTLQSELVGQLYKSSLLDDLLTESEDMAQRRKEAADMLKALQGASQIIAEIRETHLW

RFP-tagged dominant-negative, GTPase-deficient Drp1 mutant (mCherry-Drp1(K38A)) (from UniProt O00429 1-736)
binding: binds weakly

From doi:10.1101/2025.08.18.670752
